PubChem BioAssay AID652272 – Drosophila RNAi Screening Center – 2013

- Test: 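Genes whose knock-down decreases or increases Hedgehog reporter output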 (primary screen)
- Cell system: Drosophila clone 8 (Cl8) cells
- Reagents: long dsRNA against Drosophila genes
- Measurement: 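Firefly light from a Hedgehog-responsive ptc promoter reporter and Renilla reference light, both read on a plate reader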
- Scale: firefly Hh reporter signal: higher = more ptc reporter light; Renilla reference signal: higher = more Renilla control light
- Active means: 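Hit when the z-score averaged over two replicates is under -2 or over +3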
- Calls: active = hit: reporter lowered or raised; inactive = not a hit
The screen tested about 21,000 reagents; this is a random part of those that have a named target and a result. Of all reagents, 503 (2.4%) are marked active. 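Raw plate light values, not normalised; calls rest on replicate z-scores that were not deposited; hits include reporter decreases as well as increases.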 A number with no mark means an inactive call. A plus sign joins genes that one reagent is predicted to hit. The record does not give: the amount of reagent, the time to read-out.

After knock-down of Trhn (Tryptophan hydroxylase neuronal) [DRSC08621], the screen gave firefly Hh reporter signal, replicate 1 = 1.52e5; firefly Hh reporter signal, replicate 2 = 1.15e5; Renilla reference signal, replicate 1 = 6741; Renilla reference signal, replicate 2 = 5008.
Depletion of ScsbetaA (Succinyl-coenzyme A synthetase beta subunit, ADP-forming) [DRSC14446] resulted in: firefly Hh reporter signal, replicate 1 = 91469; firefly Hh reporter signal, replicate 2 = 66346; Renilla reference signal, replicate 1 = 3530; Renilla reference signal, replicate 2 = 2528.
Against nAChRalpha1 (nicotinic Acetylcholine Receptor alpha1) [DRSC13664], the entry reads firefly Hh reporter signal, replicate 1 = 37829; firefly Hh reporter signal, replicate 2 = 1.13e5; Renilla reference signal, replicate 1 = 10176; Renilla reference signal, replicate 2 = 2432.
Depletion of nAChRalpha1 (nicotinic Acetylcholine Receptor alpha1) [DRSC13670] gave: firefly Hh reporter signal, replicate 1 = 35061 (active); firefly Hh reporter signal, replicate 2 = 33912; Renilla reference signal, replicate 1 = 2122; Renilla reference signal, replicate 2 = 9641.
nAChRalpha1 (nicotinic Acetylcholine Receptor alpha1) [DRSC13672] scored firefly Hh reporter signal, replicate 1 = 40315; firefly Hh reporter signal, replicate 2 = 2.22e5; Renilla reference signal, replicate 1 = 9428; Renilla reference signal, replicate 2 = 4181.
With knock-down of nAChRalpha1 (nicotinic Acetylcholine Receptor alpha1) [DRSC17008] the results were firefly Hh reporter signal, replicate 1 = 5.14e5; firefly Hh reporter signal, replicate 2 = 1.07e5; Renilla reference signal, replicate 1 = 28154; Renilla reference signal, replicate 2 = 3465.
Against rost (rolling stone) [DRSC03603], the entry reads firefly Hh reporter signal, replicate 1 = 1.20e5; firefly Hh reporter signal, replicate 2 = 88016; Renilla reference signal, replicate 1 = 5011; Renilla reference signal, replicate 2 = 3557.
Plap (Phospholipase A2 activator protein) [DRSC00678] gave firefly Hh reporter signal, replicate 1 = 1.02e5; firefly Hh reporter signal, replicate 2 = 55666; Renilla reference signal, replicate 1 = 4474; Renilla reference signal, replicate 2 = 2745.
Silencing of His3:CG33818 + His3:CG33857 + His3:CG33806 + 20 more [DRSC21267] resulted in: firefly Hh reporter signal, replicate 1 = 13498; firefly Hh reporter signal, replicate 2 = 36924; Renilla reference signal, replicate 1 = 279; Renilla reference signal, replicate 2 = 1360.
Depletion of by (blistery) [DRSC16482] gave: firefly Hh reporter signal, replicate 1 = 49756; firefly Hh reporter signal, replicate 2 = 71637; Renilla reference signal, replicate 1 = 1661; Renilla reference signal, replicate 2 = 1996.
Silencing of CG4839 [DRSC02783] resulted in: firefly Hh reporter signal, replicate 1 = 1.20e5; firefly Hh reporter signal, replicate 2 = 57034; Renilla reference signal, replicate 1 = 3909; Renilla reference signal, replicate 2 = 2572.
Against CG4839 [DRSC02784] the deposit lists firefly Hh reporter signal, replicate 1 = 92010; firefly Hh reporter signal, replicate 2 = 54070; Renilla reference signal, replicate 1 = 2123; Renilla reference signal, replicate 2 = 4691.

Hits, among the entries above:
nAChRalpha1 (nicotinic Acetylcholine Receptor alpha1) [DRSC13670]: firefly Hh reporter signal, replicate 1 = 35061 (active); firefly Hh reporter signal, replicate 2 = 33912; Renilla reference signal, replicate 1 = 2122; Renilla reference signal, replicate 2 = 9641
